US20220096511A1, “ANTIFUNGAL AGENTS WITH IMPROVED WATER SOLUBILITY” (priority 2019, published 2022)
Converted amounts (≈) assume the structure as drawn.

System: Candida albicans
Experiment: Minimum inhibitory concentration (MIC) testing, diffusion disc assay
Type: cell-based
Conditions: diffusion paper disc, overnight at 30° C., average of three experiments, read-out: Inhibition of Candida albicans (MIC)
Method: Minimum inhibitory concentration (MIC) testing was determined for nystatin ethanol amide along with comparative antifungal agents.
Nystatin (Solid) and amphotericin were dissolved in DMF in 1 mg/mL. Econazole nitrate and Nystatin ethanol amide (salt) were dissolved in PBS to achieve 1 mg/mL.
Antibiotic medium 19 was sterilized in autoclave, after sterilization when the temperature lowered to 45° C. and 1 mL from spore suspension was added. 8 mL from this mixture dispensed to each petri dish.
On each dish 6 sterile diffusion paper disc were placed, 10 μL from each antibiotic were applied in 10, 15, 20, 25, 30, 35 μg/mL concentrations. Where MIC concentrations were below 10, lower concentrations were used: 2, 5, 7.5 μg/mL
The petri dishes were incubated overnight at 30° C. The MIC were determined as the lower concentration that inhibition could be visualized.
Observations. In this diffusion disc assay we measured the minimal concentration applied by each compound needed to inhibit the growth of C. albicans and A. niger. […] Amphotericin B inhibit the growth of C. albicans (16 μg/mL) similarly to Nystatin and Nystatin water soluble.

MIC: 16 µg/mL (≈ 17.3 µM)
Compound: C[C@@H]1[C@H](O)[C@@H](C)/C=C/C=C/C=C/C=C/C=C/C=C/C=C/[C@H](O[C@@H]2O[C@H](C)[C@@H](O)[C@H](N)[C@@H]2O)C[C@@H]2O[C@](O)(C[C@@H](O)C[C@@H](O)[C@H](O)CC[C@@H](O)C[C@@H](O)CC(=O)O[C@H]1C)C[C@H](O)[C@H]2C(=O)O [Amphotericin, amphotericin B]
